From US20260137754A1, “APPLICATION OF A COMBINATION DRUG IN THE TREATMENT OF PATHOGENIC BACTERIAL PERSISTENT INFECTIONS” (priority 2023, published 2026)
For part of these data: At least one compound was matched to its structure with a doubt left. Some entries share one result that the patent states for a list of compounds. Some ranges recur; such a range may be that of the whole group of compounds.

Assays:
E. coli metG2 strain = type: cell-based, Escherichia coli; conditions: monotherapy 10-hour exposure; 20×MIC ciprofloxacin, 20×MIC ampicillin, 3×MIC streptomycin, 3×MIC polymyxin B, 3×MIC mitomycin C
E. coli hipA7 strain = conditions: control monotherapy, 2.5 MIC kanamycin or 3 MIC polymyxin B alone
Method: The proportion of persisting cells in bacterial cultures typically reaches higher levels during the nutrient-depleted stationary phase. To investigate the persistence capacity of the model bacterium Escherichia coli(E. coli) against most bactericidal antibiotics, the standard BW25113 strain with E. coli K12 background was cultured at 37° C. in commercially available LB liquid medium until reaching the stationary phase. The culture was then inoculated at a 1:20 dilution into fresh LB liquid medium containing antibiotics at multiple dilutions of the minimum inhibitory concentration (MIC). Samples were collected after different treatment durations, and residual antibiotics were removed through two centrifugations. After tenfold serial dilution in physiological saline, the cultures were plated on LB agar plates without antibiotics. Survival colony-forming units (CFUs) were counted after two days of incubation, with initial CFU values before antibiotic addition serving as controls to calculate bacterial survival rates and persistence levels using conventional experimental methods. Testing for other bacteria followed the same protocol.
Each measurement was obtained from at least three independent experiments, with error bars representing the mean±standard deviation. […]

E. coli hipA7 cells [1] = assay: Membrane potential, DiSC3(5) dye, flow cytometry; type: cell-based, Escherichia coli; conditions: 0.9 μg/mL polymyxin B, 20 μg/mL kanamycin, combined or alone; up to 8 hours
E. coli hipA7 cells [2] = assay: Cell membrane damage, propidium iodide (PI) staining; type: cell-based, Escherichia coli; conditions: single drug

Compound | survival rate (E. coli metG2 strain) | persistence levels (E. coli hipA7 strain) | DiSC3(5) fluorescence signal (membrane potential) (E. coli hipA7 cells [1]) | PI fluorescence (membrane disruption) (E. coli hipA7 cells [2]; after 2 hours) | PI fluorescence (membrane disruption) (E. coli hipA7 cells [2]; after 4 hours)
O=C(O)c1cn(C2CC2)c2cc(N3CCNCC3)c(F)cc2c1=O [ciprofloxacin] | 1-10% | – | – | – | –
polymyxin B | 1-10% | 5-10% | – | – | –
NC[C@H]1O[C@H](O[C@H]2[C@H](O)[C@@H](O[C@H]3O[C@H](CO)[C@@H](O)[C@H](N)[C@H]3O)[C@H](N)C[C@@H]2N)[C@H](O)[C@@H](O)[C@@H]1O [kanamycin] | – | 5-10% | no significant enhancement of DiSC3(5) fluorescence signal | majority of cells showed no increase in PI fluorescence | only a minimal number of cells exhibiting detectable signals
CC1(C)S[C@@H]2[C@H](NC(=O)[C@H](N)c3ccccc3)C(=O)N2[C@H]1C(=O)O [ampicillin] | 1-10% | – | – | – | –
[H]/N=C(/N)N[C@H]1[C@H](O)[C@@H](O)[C@H](O[C@@H]2O[C@@H](C)[C@](O)(C=O)[C@H]2O[C@@H]2O[C@@H](CO)[C@H](O)[C@@H](O)[C@@H]2NC)[C@@H](N/C(N)=N\[H])[C@@H]1O [streptomycin] | 1-10% | – | – | – | –
